PubChem BioAssay AID2685 (National Center for Advancing Translational Sciences (NCATS), 2010)
Hit rate of the full screen: of about 320,000 compounds, about 2,100 (0.66%) were called active. Inconclusive means that the source gave no clear call. Such entries were picked first, then a sample of the others. Calls come from the whole dose curve; as a rule, active = well fitted inhibition curve with a large enough effect in the signal ratio, with a control signal flat (not every such curve was filed as active); inconclusive = small, poorly fitted or top-dose-only effect, or effect the other way, or a change in a side signal; inactive = flat fitted curve, though single readings scatter; the % refers to the signal ratio. A potency beside an inconclusive call is a rough fit, not a confirmed value.

Experiment: qHTS Assay for Lipid Storage Modulators in Drosophila S3 Cells
Conditions: BODIPY lipid droplet fluorescence, 18-24 h, cells fed with added oleic acid; lipid storage change, negative = inhibition: at 46.1 µM (top of the series) unless noted
Procedure, shortened: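 Drosophila S3 cells loaded with oleic acid (400 uM, as added) and compounds at several concentrations; lipid droplets imaged by 488-nm laser-scanning cytometry, 500–530 nm intensity and object ratio to cell channel. Percent activity normalized to 20 uM Triacsin C.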
% is set by controls: 0 for no effect and ±100 for the full control effect; potency is the fitted concentration of half-maximal effect.

Potency, inconclusive:
O=C(COc1ccccc1)Nc1ccc2[nH]c(=O)[nH]c2c1 0.0046 µM [falling, full curve, poor fit]
O=C(O)CN1C(=O)c2cccc(Oc3ccc(Cl)cc3)c2C1=O 25.9 µM [falling, single point]
C#CCOCCOCCOCCNc1nc(N2CCN(C(=O)[C@H](CCCCN)n3cc([C@@H](N)CO)nn3)CC2)nc(N2CCN(C(=O)[C@H](Cc3cc4ccccc4[nH]3)n3cc([C@@H](N)CO)nn3)CC2)n1 2.59 µM [falling, full curve, poor fit]
O=C(CNCc1ccc(Cl)cc1)Nc1ccc(C(=O)N2CCCCC2)cc1 29.1 µM [falling, single point]
CC(O)CO (stereo not given) 0.58 µM [activator, partial curve]
COc1ccc(CCNC(=O)CCOc2ccc(C)cc2)cc1OC 6.51 µM [activator, single point]
CCCCC(C(=O)NC1CCCC1)N(Cc1ccccc1)C(=O)c1snc(C(N)=O)c1N (stereo not given) 3.26 µM [falling, single point]

Lipid storage change, negative = inhibition, inconclusive:
O=C(NCc1nc2ccccc2[nH]1)C1=C[C@@H](c2ccccc2)C[C@@H](OCc2ccc(CO)cc2)O1 4.15%
CCN(CC)CCN(C(=O)CCS(=O)(=O)c1ccccc1)c1nc2cc3c(cc2s1)OCO3 -38.6% [at 0.00295 µM]
N/C(=N\OC(=O)CCCOc1ccccc1)c1ccccc1 -9.42%
COc1ccc(NC(=O)CSc2nc3ccccc3c(=O)n2CCCN2CCCCC2)c(OC)c1 35.7%
Cc1ccc(-n2c(=O)[nH]c3c(C(N)=O)nc(-c4ccc(C)o4)nc32)cc1 15.6%
Cc1ccc(S(=O)(=O)N/N=C2/CCCCC2C2CCCCC2)cc1[N+](=O)[O-] (stereo not given) -23.8%
CC(C)(C)NC(=O)c1c(F)c(F)c(F)c(F)c1F -11.5%
Cc1nc(Cc2nnc(SCC(=O)N3CCN(c4ccc(F)cc4)CC3)o2)cs1 -7.75%
COc1cnn(-c2ccccc2)c(=O)c1OC 14.8%
COC(=O)c1ccc(Cn2cc(C(F)(F)F)cc([N+](=O)[O-])c2=O)cc1 13.3%
Cc1ccccc1OCC(=O)NCCCNC(=O)c1cccnc1 -51.9%
CC(=O)NC1C(OCCOc2ccc(Cl)cc2Cl)OC(COC(C)=O)C(OC(C)=O)C1OC(C)=O (stereo not given) 1.66%

Some of these compounds in order of SMILES length, ascending.
Lipid storage change, negative = inhibition, inconclusive:
N/C(=N\OC(=O)CCCOc1ccccc1)c1ccccc1 -9.42%
CC(C)(C)NC(=O)c1c(F)c(F)c(F)c(F)c1F -11.5%
COc1ccc(NC(=O)CSc2nc3ccccc3c(=O)n2CCCN2CCCCC2)c(OC)c1 35.7%
CCN(CC)CCN(C(=O)CCS(=O)(=O)c1ccccc1)c1nc2cc3c(cc2s1)OCO3 -38.6% [at 0.00295 µM]
CC(=O)NC1C(OCCOc2ccc(Cl)cc2Cl)OC(COC(C)=O)C(OC(C)=O)C1OC(C)=O (stereo not given) 1.66%
O=C(NCc1nc2ccccc2[nH]1)C1=C[C@@H](c2ccccc2)C[C@@H](OCc2ccc(CO)cc2)O1 4.15%

Next part:

Lipid storage change, negative = inhibition, inactive:
COc1cc(C(C)=O)ccc1COc1ccc(C(=O)OC(C)C(=O)NC(N)=O)cc1OC (stereo not given) 6.34%
